The supplement of paper PMC10849652
Some of the results follow.

Protein sequences, listed by entry. Tags and fused reporters are not part of them. Lines headed by an entry give the natural chain unless they say otherwise; changes in a name come on top.
UniProt P84077: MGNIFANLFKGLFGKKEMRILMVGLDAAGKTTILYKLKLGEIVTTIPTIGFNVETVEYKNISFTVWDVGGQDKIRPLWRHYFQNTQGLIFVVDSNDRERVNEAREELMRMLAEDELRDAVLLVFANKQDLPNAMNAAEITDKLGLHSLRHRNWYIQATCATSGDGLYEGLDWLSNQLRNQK
UniProt Q53QZ3: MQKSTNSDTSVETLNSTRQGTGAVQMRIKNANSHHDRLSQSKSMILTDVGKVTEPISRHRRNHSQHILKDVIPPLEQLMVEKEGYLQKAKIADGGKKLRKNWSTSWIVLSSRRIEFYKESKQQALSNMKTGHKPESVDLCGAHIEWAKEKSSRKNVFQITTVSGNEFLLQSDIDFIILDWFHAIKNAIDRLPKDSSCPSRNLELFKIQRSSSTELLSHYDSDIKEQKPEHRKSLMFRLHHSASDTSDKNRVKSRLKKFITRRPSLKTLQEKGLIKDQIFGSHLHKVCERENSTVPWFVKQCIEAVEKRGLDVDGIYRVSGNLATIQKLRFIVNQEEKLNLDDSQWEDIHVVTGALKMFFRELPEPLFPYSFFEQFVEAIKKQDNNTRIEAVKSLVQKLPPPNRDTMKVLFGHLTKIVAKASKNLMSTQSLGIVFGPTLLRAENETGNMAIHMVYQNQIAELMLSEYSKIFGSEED
UniProt Q9NZN5: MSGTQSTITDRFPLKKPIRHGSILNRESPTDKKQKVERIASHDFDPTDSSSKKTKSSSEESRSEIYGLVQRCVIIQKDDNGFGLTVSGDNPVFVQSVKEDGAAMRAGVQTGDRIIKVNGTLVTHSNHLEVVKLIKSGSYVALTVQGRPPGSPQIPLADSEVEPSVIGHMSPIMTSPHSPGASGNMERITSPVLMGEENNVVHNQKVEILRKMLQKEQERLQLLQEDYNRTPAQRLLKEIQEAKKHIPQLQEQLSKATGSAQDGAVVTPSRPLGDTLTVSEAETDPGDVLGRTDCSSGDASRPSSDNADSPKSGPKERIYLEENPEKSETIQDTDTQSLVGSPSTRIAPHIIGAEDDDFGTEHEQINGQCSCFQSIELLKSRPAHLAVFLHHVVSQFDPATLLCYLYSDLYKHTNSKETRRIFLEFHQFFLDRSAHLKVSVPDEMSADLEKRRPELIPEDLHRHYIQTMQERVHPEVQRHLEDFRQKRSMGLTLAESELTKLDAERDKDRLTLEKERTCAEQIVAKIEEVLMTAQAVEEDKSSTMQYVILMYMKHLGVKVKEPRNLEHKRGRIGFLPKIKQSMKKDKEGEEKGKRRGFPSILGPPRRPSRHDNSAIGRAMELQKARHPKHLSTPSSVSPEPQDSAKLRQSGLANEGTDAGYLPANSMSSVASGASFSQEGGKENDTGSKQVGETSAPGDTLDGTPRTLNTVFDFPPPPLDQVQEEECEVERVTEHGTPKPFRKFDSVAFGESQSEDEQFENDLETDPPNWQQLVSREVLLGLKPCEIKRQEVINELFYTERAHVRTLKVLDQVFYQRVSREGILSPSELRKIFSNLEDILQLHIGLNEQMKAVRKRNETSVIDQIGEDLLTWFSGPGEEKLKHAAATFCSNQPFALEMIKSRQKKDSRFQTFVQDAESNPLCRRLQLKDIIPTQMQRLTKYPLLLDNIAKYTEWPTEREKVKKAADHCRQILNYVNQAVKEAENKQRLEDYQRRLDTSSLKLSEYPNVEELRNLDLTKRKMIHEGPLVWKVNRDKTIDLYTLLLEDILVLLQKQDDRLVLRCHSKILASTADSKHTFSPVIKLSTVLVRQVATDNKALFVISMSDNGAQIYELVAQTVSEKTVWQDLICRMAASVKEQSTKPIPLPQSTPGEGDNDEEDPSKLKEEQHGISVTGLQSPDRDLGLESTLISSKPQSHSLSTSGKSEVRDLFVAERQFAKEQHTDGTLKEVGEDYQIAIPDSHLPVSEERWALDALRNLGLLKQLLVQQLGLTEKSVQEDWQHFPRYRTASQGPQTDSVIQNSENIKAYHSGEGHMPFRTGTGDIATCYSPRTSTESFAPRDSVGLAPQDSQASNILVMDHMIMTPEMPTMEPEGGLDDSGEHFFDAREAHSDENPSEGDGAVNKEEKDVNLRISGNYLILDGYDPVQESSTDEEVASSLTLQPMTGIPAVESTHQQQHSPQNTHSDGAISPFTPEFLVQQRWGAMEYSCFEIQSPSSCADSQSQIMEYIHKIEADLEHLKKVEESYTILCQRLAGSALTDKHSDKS
UniProt Q9H2J1: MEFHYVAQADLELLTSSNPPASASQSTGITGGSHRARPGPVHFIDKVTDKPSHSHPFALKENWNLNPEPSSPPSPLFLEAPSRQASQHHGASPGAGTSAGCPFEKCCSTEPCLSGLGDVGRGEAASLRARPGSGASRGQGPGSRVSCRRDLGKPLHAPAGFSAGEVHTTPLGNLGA
UniProt Q8WWN8: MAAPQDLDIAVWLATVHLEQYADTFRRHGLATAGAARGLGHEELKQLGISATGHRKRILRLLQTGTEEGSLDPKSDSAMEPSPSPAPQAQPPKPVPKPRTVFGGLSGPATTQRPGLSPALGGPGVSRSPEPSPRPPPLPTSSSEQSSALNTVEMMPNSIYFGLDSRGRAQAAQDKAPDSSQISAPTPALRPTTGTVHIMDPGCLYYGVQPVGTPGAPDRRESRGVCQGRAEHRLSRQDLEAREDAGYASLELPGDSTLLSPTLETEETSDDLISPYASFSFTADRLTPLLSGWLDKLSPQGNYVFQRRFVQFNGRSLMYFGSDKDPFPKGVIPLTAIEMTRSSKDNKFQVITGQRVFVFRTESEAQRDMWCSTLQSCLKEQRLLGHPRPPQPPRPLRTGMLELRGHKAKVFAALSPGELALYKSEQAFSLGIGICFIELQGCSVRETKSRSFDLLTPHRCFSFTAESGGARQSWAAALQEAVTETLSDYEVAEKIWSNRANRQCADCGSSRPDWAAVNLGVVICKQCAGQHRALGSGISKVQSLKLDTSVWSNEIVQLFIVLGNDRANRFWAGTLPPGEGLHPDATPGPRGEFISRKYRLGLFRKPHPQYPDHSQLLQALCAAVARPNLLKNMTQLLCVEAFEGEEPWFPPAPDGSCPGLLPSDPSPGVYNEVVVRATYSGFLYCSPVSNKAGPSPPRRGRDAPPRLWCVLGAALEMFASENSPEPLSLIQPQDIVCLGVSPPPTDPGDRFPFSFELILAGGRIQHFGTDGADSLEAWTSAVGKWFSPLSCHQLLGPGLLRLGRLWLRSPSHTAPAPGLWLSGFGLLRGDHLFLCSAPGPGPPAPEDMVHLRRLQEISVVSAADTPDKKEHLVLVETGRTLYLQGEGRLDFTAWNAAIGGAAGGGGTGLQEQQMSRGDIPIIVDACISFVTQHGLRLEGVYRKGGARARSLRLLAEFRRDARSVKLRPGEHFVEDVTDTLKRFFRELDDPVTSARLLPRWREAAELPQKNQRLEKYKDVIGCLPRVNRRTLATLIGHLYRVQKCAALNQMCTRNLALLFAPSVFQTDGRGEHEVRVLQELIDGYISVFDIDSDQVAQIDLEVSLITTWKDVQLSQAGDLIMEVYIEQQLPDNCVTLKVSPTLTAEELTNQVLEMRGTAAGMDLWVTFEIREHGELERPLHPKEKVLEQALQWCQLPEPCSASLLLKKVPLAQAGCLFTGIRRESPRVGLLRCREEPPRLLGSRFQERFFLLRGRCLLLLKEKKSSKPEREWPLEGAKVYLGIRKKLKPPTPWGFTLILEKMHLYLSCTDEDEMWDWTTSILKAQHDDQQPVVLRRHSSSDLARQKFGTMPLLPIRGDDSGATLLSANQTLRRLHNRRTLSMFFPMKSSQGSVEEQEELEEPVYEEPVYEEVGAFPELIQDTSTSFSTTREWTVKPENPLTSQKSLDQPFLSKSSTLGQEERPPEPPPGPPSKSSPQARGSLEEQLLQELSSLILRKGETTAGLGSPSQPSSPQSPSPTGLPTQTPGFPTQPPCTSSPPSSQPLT
UniProt P29972: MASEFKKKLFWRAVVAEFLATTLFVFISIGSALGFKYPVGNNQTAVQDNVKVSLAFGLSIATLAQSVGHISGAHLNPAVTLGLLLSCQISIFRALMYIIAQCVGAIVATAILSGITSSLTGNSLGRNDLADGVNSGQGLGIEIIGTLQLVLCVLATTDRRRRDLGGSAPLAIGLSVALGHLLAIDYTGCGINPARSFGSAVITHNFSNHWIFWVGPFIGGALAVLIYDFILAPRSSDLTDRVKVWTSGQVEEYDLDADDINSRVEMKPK
UniProt P05090: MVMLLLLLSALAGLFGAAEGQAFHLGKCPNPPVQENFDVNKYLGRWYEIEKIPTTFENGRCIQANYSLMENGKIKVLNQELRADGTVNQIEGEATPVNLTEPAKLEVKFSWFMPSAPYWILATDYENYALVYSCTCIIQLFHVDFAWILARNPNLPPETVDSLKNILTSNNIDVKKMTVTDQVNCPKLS
UniProt Q7Z5H3: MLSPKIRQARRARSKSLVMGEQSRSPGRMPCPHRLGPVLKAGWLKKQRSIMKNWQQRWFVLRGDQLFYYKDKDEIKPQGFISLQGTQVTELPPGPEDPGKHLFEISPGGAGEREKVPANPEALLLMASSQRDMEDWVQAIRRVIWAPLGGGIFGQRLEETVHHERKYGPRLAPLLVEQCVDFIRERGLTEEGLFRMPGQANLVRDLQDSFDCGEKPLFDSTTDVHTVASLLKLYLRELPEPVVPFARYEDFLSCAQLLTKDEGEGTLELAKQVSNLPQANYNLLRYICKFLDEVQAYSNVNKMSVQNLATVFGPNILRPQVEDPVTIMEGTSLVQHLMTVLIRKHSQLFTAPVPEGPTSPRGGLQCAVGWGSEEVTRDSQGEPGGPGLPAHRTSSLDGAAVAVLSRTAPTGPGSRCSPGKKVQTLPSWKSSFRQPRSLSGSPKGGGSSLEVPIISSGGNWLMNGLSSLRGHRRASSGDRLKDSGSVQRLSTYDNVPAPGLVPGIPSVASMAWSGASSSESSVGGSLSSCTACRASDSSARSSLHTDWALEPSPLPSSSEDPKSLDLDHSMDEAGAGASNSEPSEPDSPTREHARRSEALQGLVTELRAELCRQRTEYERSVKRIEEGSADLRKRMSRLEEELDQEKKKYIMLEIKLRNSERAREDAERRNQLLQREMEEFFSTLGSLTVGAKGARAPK
UniProt Q9C0H5: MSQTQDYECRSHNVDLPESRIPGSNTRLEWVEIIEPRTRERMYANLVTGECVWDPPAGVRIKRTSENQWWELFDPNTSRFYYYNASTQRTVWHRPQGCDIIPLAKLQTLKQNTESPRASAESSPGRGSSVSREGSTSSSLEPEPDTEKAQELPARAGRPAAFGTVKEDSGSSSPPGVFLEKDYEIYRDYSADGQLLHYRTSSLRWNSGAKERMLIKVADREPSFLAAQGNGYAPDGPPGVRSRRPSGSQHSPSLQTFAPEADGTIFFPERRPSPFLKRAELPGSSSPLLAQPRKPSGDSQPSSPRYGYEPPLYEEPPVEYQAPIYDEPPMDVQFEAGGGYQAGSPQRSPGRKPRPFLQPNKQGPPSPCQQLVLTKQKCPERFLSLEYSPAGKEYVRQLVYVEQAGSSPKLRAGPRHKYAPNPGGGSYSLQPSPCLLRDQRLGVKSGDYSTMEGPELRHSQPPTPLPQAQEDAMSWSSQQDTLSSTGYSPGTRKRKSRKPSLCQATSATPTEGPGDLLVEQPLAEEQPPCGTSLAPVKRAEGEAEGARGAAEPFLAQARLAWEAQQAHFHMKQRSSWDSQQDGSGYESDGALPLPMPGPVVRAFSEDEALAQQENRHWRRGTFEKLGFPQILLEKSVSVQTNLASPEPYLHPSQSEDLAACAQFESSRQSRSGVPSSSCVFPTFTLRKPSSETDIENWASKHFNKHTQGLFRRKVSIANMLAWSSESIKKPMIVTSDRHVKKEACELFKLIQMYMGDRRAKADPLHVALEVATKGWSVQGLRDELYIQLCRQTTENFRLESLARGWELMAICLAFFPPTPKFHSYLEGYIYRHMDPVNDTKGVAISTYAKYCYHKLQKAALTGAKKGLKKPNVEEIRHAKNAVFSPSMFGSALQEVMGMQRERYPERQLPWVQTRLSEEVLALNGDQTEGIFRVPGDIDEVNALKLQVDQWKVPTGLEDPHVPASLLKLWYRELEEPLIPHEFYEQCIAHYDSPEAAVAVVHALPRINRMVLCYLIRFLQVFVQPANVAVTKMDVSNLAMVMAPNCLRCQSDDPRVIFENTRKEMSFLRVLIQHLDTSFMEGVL
UniProt Q13508: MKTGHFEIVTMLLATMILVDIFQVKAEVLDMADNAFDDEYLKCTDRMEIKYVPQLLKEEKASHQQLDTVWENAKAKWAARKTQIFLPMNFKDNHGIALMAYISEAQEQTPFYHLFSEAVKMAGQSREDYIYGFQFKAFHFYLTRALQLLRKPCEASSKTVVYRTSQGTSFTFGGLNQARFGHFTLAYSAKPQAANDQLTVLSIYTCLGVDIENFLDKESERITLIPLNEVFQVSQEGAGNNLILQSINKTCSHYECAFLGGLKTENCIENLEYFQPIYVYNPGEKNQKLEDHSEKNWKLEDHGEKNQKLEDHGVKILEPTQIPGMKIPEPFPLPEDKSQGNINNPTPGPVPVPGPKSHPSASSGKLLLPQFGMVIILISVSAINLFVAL

Assays:
Experiment in all cases: log2 fold change, soluble protein after heating vs DMSO (PISA); higher = thermal stabilisation; K562 lysate, 10 uM; active = over 0.2 and 3.5 SD of the protein, either way, in both replicates (recomputed)
[1] = compound: CCCS(=O)(=O)Nc1ccc(F)c(C(=O)c2c[nH]c3ncc(Cl)cc23)c1F
Outline: (§1)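 Following dounce homogenisation of K562 pellets in PBS pH 7.4 with 1 mM MgCl2, crude extract at 1 mg/mL protein was incubated for 30 min with 10 μM compound. Aliquots were then heated for 3 min over 48°C-58°C and pooled, NP-40 was added to 0.5% at 4°C, and soluble protein was recovered as the supernatant at 21,000xg for 90 min. Channel-sum-equalised TMTpro 16plex LC-MS/MS quantified this protein. Each value, from duplicates, is a log-two fold change in thermal stability relative to solvent controls.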

[2] = compound: CC[C@@H]1C(=O)N(C)c2cnc(Nc3ccc(C(=O)N[C@H]4CC[C@H](N5CCN(CC6CC6)CC5)CC4)cc3OC)nc2N1C(C)C [volasertib]
Outline: as §1

[3] = compound: CCn1c(C(=O)N(C2CC2)C2CC2)cc2c3c(ncn3C)c(Nc3cc(C)n(C)n3)nc21
Outline: as §1

[4] = compound: CCn1cc(-c2ccnc3[nH]c(-c4cccc(CN(C)C)c4)cc23)c(-c2ccc(NC(=O)N(C)C)cc2)n1
Outline: as §1

[5] = compound: CN1CCC(CNc2ccc3ncc(-c4cccc(OC(F)(F)F)c4)n3n2)CC1
Outline: as §1

[6] = compound: CN1CCN(c2nc(C3=C(c4c[nH]c5ccccc45)C(=O)NC3=O)c3ccccc3n2)CC1 [sotrastaurin]
Outline: as §1

[7] = compound: CN1CC[C@H](c2c(O)cc(O)c3c(=O)cc(-c4ccccc4Cl)oc23)[C@H](O)C1 [alvocidib]
Outline: as §1

[8] = compound: CN1CCc2c(c3ccccc3n2Cc2ccc(C(=O)NO)cc2)C1 [Tubastatin A]
Outline: as §1

[9] = compound: CNC(=O)C1=CC=CC=C1NC2=NC(=NC=C2Cl)NC3=C(C=C(C=C3)N4CCOCC4)OC
Outline: as §1

[10] = compound: COc1cc2nc(-c3cc(F)ccc3O)nc(N[C@@H]3CNC[C@H]3C(C)(C)O)c2cc1OC
Outline: as §1

[11] = compound: CC[C@@H]1C(=O)N(C)c2cnc(Nc3ccc(C(=O)NC4CCN(C)CC4)cc3OC)nc2N1C1CCCC1
Outline: as §1

[12] = compound: COC(=O)N[C@@H](C)CNc1nccc(-c2cn(C(C)C)nc2-c2cc(Cl)cc(NS(C)(=O)=O)c2F)n1 [encorafenib]
Outline: as §1

[13] = compound: COC(=O)[C@H](CCSC)NC(=O)C1=C(C=C(C=C1)NC[C@H](CS)N)C2=CC=CC=C2
Outline: as §1

[14] = compound: COc1cc(Nc2ncc3c(n2)-c2ccc(Cl)cc2C(c2c(F)cccc2OC)=NC3)ccc1C(=O)O [alisertib]
Outline: as §1

[15] = compound: COc1cc2ncnc(Nc3ccc(F)c(Cl)c3)c2cc1OCCCN1CCOCC1 [gefitinib]
Outline: as §1

[16] = compound: CN1CCN(CCOc2cc(OC3CCOCC3)c3c(Nc4c(Cl)ccc5c4OCO5)ncnc3c2)CC1 [saracatinib]
Outline: as §1

[17] = compound: CNc1nc(-c2ccc3c(N)n[nH]c3c2)cc(N2C[C@@H](C(=O)NC3CCCCC3)CC[C@H]2C)n1
Outline: as §1

[18] = compound: CCN(CCCOc1ccc2c(Nc3cc(CC(=O)Nc4cccc(F)c4)[nH]n3)ncnc2c1)CCOP(=O)(O)O [barasertib]
Outline: as §1

Measured: log2 fold change

ARF1 (UniProt P84077)
inactive: [1] 0.139 | [2] -0.023 | [3] 0.017 | [4] 0.047 | [5] -0.225 | [6] 0.063 | [7] 0.074 | [8] -0.028 | [9] 0.009 | [10] 0.005

ARHGAP15 (UniProt Q53QZ3)
inactive: [1] -0.157 | [11] -0.32 | [2] 0.243 | [6] -0.308 | [12] -0.052 | [13] 0.084 | [10] 0.057

ARHGEF12 isoform 2 (UniProt Q9NZN5)
inactive: [11] 0.03 | [6] -0.041 | [12] 0.036 | [13] -0.106

ARMC8 isoform 6 (UniProt Q8IUR7)
inactive: [1] -0.022 | [2] -0.047 | [4] 0.042 | [5] -0.038 | [7] -0.002 | [9] 0.032 | [10] -0.035

ARRDC1-AS1 (UniProt Q9H2J1)
inactive: [4] 0.016 | [5] -0.024 | [7] 0.081 | [14] -0.342 | [15] -0.061

API5 isoform 1 (UniProt Q9BZZ5)
inactive: [3] 0.07 | [4] -0.042 | [5] -0.116 | [6] 0.113 | [7] -0.089 | [8] 0.105 | [14] 0.029 | [15] -0.159

ARAP3 (UniProt Q8WWN8)
inactive: [11] -0.281 | [4] 0.146 | [5] -0.038 | [16] 0.047 | [7] -0.123 | [9] 0.07 | [17] -0.087 | [12] 0.184 | [13] 0.02 | [14] 0.04 | [15] -0.067

AQP1 (UniProt P29972)
inactive: [4] -0.175 | [5] 0.128 | [7] -0.072

ARMC10 isoform 2 (UniProt Q8N2F6)
inactive: [11] 0.113 | [3] -0.126 | [16] 0.017 | [8] 0.155 | [17] 0.107 | [12] -0.267 | [13] -0.046

ARL6IP4 isoform 2 (UniProt Q66PJ3)
inactive: [1] -0.113 | [2] -0.005 | [4] -0.015 | [5] 0.04 | [7] 0.025 | [10] 0.105

ARHGEF16 (UniProt Q5VV41)
inactive: [11] -0.016 | [9] 0.04 | [12] 0.006 | [13] 0.184

APOD (UniProt P05090)
inactive: [1] -0.215 | [11] -0.131 | [2] -0.091 | [4] 0.279 | [5] -0.248 | [16] 0.072 | [6] -0.006 | [7] -0.034 | [17] -0.293 | [12] 0.211 | [13] 0.164 | [10] -0.189

ARMC8 (UniProt C9JAA7)
inactive: [11] -0.002 | [12] 0.211 | [13] 0.017

APTX isoform 4 (UniProt Q7Z2E3)
inactive: [4] -0.25 | [5] 0.104 | [7] 0.054 | [14] -0.124 | [15] 0.047

ARL6IP4 isoform 7 (UniProt Q66PJ3)
inactive: [18] 0.047

APH1A (UniProt Q96BI3)
inactive: [1] 0.06 | [18] -0.023 | [11] -0.029 | [2] 0.061 | [4] 0.071 | [5] -0.023 | [6] -0.015 | [7] 0.129 | [9] -0.053 | [12] -0.001 | [13] -0.159 | [14] 0.046 | [10] 0.028 | [15] -0.037

AP5B1 (UniProt Q2VPB7)
inactive: [1] 0.062 | [18] 0.035 | [11] 0.066 | [2] 0.011 | [3] 0.001 | [4] 0.002 | [5] 0.045 | [16] -0.014 | [6] -0.062 | [7] -0.091 | [8] -0.149 | [9] 0.099 | [17] -0.092 | [12] -0.017 | [13] -0.011 | [14] -0.008 | [10] -0.059 | [15] 0.05

AP5S1 (UniProt Q9NUS5)
inactive: [1] -0.008 | [11] -0.022 | [2] 0.039 | [3] 0.046 | [16] 0.084 | [6] -0.033 | [8] 0.177 | [9] -0.321 | [17] 0.119 | [12] 0.058 | [13] -0.157 | [10] -0.702

APPBP2 (UniProt Q92624)
inactive: [18] -0.314 | [3] -0.064 | [4] 0.183 | [5] -0.046 | [6] 0.027 | [7] -0.078 | [8] 0.05 | [9] 0.031

ARHGAP22 isoform 2 (UniProt Q7Z5H3)
inactive: [1] -0.08 | [11] 0.116 | [2] 0.061 | [3] -0.047 | [16] -0.033 | [6] -0.038 | [8] 0 | [9] -0.007 | [17] 0.11 | [12] -0.059 | [13] -0.045 | [10] 0.097

APBA1 (UniProt Q02410)
inactive: [1] -0.019 | [18] 0.039 | [11] 0.066 | [2] 0.015 | [3] -0.016 | [4] 0.237 | [5] -0.03 | [6] 0.064 | [7] 0.034 | [8] -0.218 | [9] -0.03 | [12] -0.067 | [13] -0.019 | [14] 0.072 | [10] 0.063 | [15] 0.077

ARL4A (UniProt P40617)
inactive: [11] -0.005 | [12] 0.054 | [13] 0.065 | [14] -0.073 | [15] 0.058

APOL1 isoform 2 (UniProt O14791)
inactive: [11] 0.166 | [4] 0.465 | [5] -0.083 | [16] 0.231 | [7] -0.048 | [17] 0.132 | [12] -0.047 | [13] 0.161

ARHGAP39 isoform 2 (UniProt Q9C0H5)
inactive: [1] -0.055 | [2] 0 | [6] -0.078 | [10] 0.063

ART3 (UniProt Q13508)
inactive: [3] 0.047 | [8] -0.001

ARHGEF40 (UniProt Q8TER5)
inactive: [1] -0.107 | [2] -0.02 | [3] 0.114 | [16] 0.077 | [8] -0.524 | [9] -0.008 | [17] 0.065 | [14] -0.018 | [10] -0.027 | [15] 0.005

APOH (UniProt P02749)
inactive: [1] -0.002 | [18] -0.16 | [2] -0.107 | [6] 0.268 | [10] 0.042

ARL6 isoform 2 (UniProt Q9H0F7)
inactive: [6] 0.026 | [9] -0.195

2 successive entries already listed, quoted:
ARHGEF40 (UniProt Q8TER5)
inactive: [1] -0.107 | [2] -0.02 | [3] 0.114 | [16] 0.077 | [8] -0.524 | [9] -0.008 | [17] 0.065 | [14] -0.018 | [10] -0.027 | [15] 0.005

APOH (UniProt P02749)
inactive: [1] -0.002 | [18] -0.16 | [2] -0.107 | [6] 0.268 | [10] 0.042

Additional results:

APLNR (UniProt P35414)
inactive: [4] -0.098 | [5] -0.186 | [7] 0.006
